Data published in patent US20190269705A1, “METHODS AND MATERIALS FOR TREATING GRAFT VERSUS HOST DISEASE” (Regents of the University of Minnesota, priority 2017, published 2019).
For at least one compound, name, drawing or mass did not settle the structure.

System: Th1 cells
Experiment: CD4 T cells in Th1 skewing conditions, flow cytometry
Conditions: rapamycin added on day 3 after activation

In the case of `CO[C@H]1C[C@@H]2CC[C@@H](C)[C@@](O)(O2)C(=O)C(=O)N2CCCC[C@H]2C(=O)O[C@H]([C@H](C)C[C@@H]2CC[C@@H](O)[C@H](OC)C2)CC(=O)[C@H](C)/C=C(\C)[C@@H](O)[C@@H](OC)C(=O)[C@H](C)C[C@H](C)/C=C/C=C/C=C/1C` [rapamycin], the “cytokine production in CB839-treated Th1 cells” value is reported as “reduced phospho-S6 and cytokine production” and the “phospho-S6 in CB839-treated Th1 cells” value is reported as “reduced phospho-S6”.
